Assay results as given in patent US20230390275A1, “APPLICATION OF ESTER GROUP-[…] PR[…] AND METABOLITE THEREOF IN PREPARATION OF DRUG FOR TREATING HEART FAILURE” (CHANGCHUN GENESCIENCE PHARMACEUTICAL CO., LTD., priority 2020, published 2023).
At least one compound was matched to its structure with a doubt left.

Assays:
Format in all cases: in vivo, Sprague Dawley rats
[1] = test system: heart failure rats; test: Body weight and organ weight index (heart weight index, brain/heart weight ratio) in myocardial infarction heart failure rats; settings: 3 mg/kg p.o. qd for 4 weeks
Experimental: (§1) • 1. Vehicle (0.5% CMC Na): formulation: 5 g of CMC Na was weighed out, and the volume was made up to 1000 mL with ddwater; the vehicle was obtained by stirring with a stirrer until the CMC Na was dissolved. • 2. EG017: formulation: a proper amount of the sample was weighed out, and a formula amount of the 0.5% CMC Na was added to prepare 1 mg/kg, 3 mg/kg and 10 mg/kg compound; the formulations were obtained by stirring with a stirrer until the sample was dissolved. Administration regimen: one week after animal modeling, sham/myocardial infarction rats were grouped and administered orally once daily for 28 consecutive days in a volume of 10 mL/kg. […]
(§2) One week after the modeling of animals, the isoflurane was used for anesthetizing the rats, the Vevo small animal ultrasonic imaging system was used for checking the function of the left ventricle of the model rats, and successful modeling was determined if the LVFE % was reduced by 30%. […]

[2] = test system: heart failure rats; test: Echocardiography of left ventricular function in myocardial infarction heart failure rats; settings: 3 mg/kg p.o. qd for 4 weeks; P<0.05
Experimental: • 1. Vehicle (0.5% CMC Na): formulation: 5 g of CMC Na was weighed out, and the volume was made up to 1000 mL with ddwater; the vehicle was obtained by stirring with a stirrer until the CMC Na was dissolved. • 2. EG017: formulation: a proper amount of the sample was weighed out, and a formula amount of the 0.5% CMC Na was added to prepare 1 mg/kg, 3 mg/kg and 10 mg/kg compound; the formulations were obtained by stirring with a stirrer until the sample was dissolved. Administration regimen: one week after animal modeling, sham/myocardial infarction rats were grouped and administered orally once daily for 28 consecutive days in a volume of 10 mL/kg.
After adaptive feeding, on the day of the experiment, the animals were anesthetized by intraperitoneal injection of pentobarbital sodium injection (60 mpk), atropine (0.5 mpk) was injected intraperitoneally to eliminate phlegm, and then the trachea was connected with a breathing machine to assist breathing; the chest was cut open from the place between the third rib and the fourth rib and then expanded with a chest expander; the pericardium was torn open, the left anterior descending coronary artery was ligated with 5-0 silk thread, the ribs and skin were sutured, and then the animals were placed on a heat preservation blanket for recovery after operation. The animals in the Sham group were also subjected to the same operation, except that the ligation with silk thread was not performed. After the operation was finished, all the animals are subjected to intramuscular injection of meloxicam (1 mpk) and gentamicin hydrochloride injection (8 mpk) for analgesia and anti-infection. One day before administration, the rats were subjected to cardiac ultrasonography after anesthesia by isoflurane inhalation (1.5%-5% v/v in oxygen), and the ligation was successful if there was no significant contraction of the anterior wall of the left ventricle, the left ventricular cavity was enlarged, and there was a 30% decrease in left ventricular ejection fraction compared to the normal control group. Successfully modeled rats were selected for subsequent experiments (note: ensure that there were 7 animals in each group after modeling, and 7 animals in the sham group). The rats in each group were subjected to intragastric administration of therapeutic agent once daily for four consecutive weeks. During the experiment, the living state of the animals was observed, and the abnormal conditions were recorded; endpoint index detection and sample collection were performed one day after the last dose.
One week after the modeling of animals, the isoflurane was used for anesthetizing the rats, the Vevo small animal ultrasonic imaging system was used for checking the function of the left ventricle of the model rats, and successful modeling was determined if the LVFE % was reduced by 30%.
Except for the Sham group, the animals were divided into 9 groups according to LVEF % and body weight, 7 rats in each group. […]

[3] = test system: heart failure rats; test: Hemodynamics (heart rate, arterial blood pressure, left ventricular pressure) in myocardial infarction heart failure rats; settings: 3 mg/kg p.o. qd for 4 weeks
Experimental: as §1, §2

C[C@@](COc1ccc(C#N)cc1)(OC(=O)c1cccnc1)C(=O)Nc1ccc(C#N)c(C(F)(F)F)c1 [EG017, (S)-1-((4-cyano-3-(trifluoromethyl)phenyl)amino)-3-(4-cyanophenoxy)-2-methyl-1-oxopropan-2-yl nicotinate]
body weight of the rats (in words) [1]: increased significantly
effect on the increase of systolic volume (ESV), compared with the Model group (in words) [2]: significant improvement effect
effect on the reduction of CO, compared with the Model group (in words) [2]: significant improvement effect
effect on the reduction of FS, compared with the Model group (in words) [2]: significant improvement effect
effect on the reduction of LVEF, compared with the Model group (in words) [2]: significant improvement effect
effect on the reduction of SV, compared with the Model group (in words) [2]: significant improvement effect
influence on the arterial blood pressures (SBP, DBP, MBP), compared with the Model group (in words) [3]: no significant influence
effect on LVSP reduction caused by heart failure, compared with the Model group (in words) ([3]; P<0.05): relatively significant effect
